# Data reported in PMC10287742.
# The chains behind the UniProt entries cited, without tags or fusion partners. Residues count along the entry.
# UniProt P16410, residues 36-223: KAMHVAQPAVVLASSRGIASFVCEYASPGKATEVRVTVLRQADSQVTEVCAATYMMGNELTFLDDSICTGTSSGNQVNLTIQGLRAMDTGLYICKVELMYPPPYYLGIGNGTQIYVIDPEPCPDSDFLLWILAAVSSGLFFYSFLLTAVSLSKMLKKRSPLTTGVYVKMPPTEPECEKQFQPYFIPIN
# UniProt P50851: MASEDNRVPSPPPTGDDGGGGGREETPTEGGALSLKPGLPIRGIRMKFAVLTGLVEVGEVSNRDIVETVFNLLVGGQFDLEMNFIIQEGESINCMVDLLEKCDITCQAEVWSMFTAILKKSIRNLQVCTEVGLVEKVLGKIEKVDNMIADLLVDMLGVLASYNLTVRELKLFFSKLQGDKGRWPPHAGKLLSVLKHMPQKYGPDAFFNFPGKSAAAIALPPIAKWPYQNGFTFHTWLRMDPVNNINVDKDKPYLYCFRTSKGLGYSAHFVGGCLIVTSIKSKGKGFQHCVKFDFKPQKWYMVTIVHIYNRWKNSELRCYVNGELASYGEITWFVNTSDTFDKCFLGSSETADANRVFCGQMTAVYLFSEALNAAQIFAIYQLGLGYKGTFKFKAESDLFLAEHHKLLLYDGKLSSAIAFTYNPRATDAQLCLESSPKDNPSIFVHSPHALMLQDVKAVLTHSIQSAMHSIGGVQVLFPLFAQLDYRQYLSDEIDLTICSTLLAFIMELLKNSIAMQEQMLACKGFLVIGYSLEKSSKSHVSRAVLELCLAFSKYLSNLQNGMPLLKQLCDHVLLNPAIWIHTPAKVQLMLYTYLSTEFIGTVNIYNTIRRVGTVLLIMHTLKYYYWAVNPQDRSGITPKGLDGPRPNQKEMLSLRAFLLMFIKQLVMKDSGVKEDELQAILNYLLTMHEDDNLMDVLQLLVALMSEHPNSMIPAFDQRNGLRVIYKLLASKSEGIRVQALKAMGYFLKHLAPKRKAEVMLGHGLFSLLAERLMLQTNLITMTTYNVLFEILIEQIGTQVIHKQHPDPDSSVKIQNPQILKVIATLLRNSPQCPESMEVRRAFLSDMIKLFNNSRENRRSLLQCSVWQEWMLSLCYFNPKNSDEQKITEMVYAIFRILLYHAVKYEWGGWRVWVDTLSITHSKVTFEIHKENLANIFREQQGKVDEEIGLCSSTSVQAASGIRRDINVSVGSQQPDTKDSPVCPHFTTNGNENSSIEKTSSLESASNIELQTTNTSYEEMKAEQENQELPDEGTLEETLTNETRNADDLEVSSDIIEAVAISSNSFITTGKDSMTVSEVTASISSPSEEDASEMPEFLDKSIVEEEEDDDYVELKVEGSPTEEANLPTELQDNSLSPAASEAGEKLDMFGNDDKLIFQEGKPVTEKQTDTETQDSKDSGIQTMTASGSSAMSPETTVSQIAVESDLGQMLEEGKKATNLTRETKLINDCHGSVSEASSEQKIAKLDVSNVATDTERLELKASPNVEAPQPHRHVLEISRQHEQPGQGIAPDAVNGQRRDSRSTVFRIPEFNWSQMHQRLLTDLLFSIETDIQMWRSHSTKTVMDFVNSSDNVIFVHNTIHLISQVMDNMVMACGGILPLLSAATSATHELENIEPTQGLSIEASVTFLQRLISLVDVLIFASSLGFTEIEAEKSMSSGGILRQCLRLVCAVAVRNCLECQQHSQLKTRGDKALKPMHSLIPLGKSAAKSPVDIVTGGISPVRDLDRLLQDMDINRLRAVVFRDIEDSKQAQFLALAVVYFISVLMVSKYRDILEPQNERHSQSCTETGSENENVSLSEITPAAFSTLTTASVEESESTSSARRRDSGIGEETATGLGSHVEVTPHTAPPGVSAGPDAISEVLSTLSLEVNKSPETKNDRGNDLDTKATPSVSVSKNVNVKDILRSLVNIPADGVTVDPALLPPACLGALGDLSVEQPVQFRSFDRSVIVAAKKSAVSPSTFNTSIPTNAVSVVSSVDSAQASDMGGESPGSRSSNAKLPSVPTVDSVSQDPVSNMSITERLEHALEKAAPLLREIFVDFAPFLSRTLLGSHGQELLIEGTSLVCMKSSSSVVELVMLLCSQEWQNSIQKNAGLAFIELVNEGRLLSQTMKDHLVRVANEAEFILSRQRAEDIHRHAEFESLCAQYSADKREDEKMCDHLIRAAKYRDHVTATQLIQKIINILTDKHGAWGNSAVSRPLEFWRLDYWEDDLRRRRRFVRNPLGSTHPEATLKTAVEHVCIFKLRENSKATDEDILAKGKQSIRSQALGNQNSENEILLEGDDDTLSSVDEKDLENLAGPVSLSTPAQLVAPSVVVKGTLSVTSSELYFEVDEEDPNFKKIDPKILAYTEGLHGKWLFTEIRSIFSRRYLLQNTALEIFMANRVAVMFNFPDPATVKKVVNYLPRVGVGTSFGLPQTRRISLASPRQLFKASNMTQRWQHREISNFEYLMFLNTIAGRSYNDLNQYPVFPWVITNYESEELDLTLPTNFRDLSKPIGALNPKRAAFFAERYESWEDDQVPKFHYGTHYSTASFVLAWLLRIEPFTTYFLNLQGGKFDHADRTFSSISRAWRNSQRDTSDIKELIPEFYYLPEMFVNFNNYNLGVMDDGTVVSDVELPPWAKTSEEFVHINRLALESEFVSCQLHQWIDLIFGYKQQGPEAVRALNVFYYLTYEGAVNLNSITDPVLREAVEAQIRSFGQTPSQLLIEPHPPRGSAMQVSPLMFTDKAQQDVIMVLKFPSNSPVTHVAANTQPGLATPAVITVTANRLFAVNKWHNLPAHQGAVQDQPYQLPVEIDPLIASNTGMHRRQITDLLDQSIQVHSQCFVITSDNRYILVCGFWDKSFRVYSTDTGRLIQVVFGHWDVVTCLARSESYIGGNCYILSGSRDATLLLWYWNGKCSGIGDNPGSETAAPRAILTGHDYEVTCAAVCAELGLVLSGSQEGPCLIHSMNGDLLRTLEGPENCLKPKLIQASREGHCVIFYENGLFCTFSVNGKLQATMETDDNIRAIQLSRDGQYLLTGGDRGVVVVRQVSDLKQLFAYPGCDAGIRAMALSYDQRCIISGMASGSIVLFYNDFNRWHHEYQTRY
# UniProt Q6ZNJ1: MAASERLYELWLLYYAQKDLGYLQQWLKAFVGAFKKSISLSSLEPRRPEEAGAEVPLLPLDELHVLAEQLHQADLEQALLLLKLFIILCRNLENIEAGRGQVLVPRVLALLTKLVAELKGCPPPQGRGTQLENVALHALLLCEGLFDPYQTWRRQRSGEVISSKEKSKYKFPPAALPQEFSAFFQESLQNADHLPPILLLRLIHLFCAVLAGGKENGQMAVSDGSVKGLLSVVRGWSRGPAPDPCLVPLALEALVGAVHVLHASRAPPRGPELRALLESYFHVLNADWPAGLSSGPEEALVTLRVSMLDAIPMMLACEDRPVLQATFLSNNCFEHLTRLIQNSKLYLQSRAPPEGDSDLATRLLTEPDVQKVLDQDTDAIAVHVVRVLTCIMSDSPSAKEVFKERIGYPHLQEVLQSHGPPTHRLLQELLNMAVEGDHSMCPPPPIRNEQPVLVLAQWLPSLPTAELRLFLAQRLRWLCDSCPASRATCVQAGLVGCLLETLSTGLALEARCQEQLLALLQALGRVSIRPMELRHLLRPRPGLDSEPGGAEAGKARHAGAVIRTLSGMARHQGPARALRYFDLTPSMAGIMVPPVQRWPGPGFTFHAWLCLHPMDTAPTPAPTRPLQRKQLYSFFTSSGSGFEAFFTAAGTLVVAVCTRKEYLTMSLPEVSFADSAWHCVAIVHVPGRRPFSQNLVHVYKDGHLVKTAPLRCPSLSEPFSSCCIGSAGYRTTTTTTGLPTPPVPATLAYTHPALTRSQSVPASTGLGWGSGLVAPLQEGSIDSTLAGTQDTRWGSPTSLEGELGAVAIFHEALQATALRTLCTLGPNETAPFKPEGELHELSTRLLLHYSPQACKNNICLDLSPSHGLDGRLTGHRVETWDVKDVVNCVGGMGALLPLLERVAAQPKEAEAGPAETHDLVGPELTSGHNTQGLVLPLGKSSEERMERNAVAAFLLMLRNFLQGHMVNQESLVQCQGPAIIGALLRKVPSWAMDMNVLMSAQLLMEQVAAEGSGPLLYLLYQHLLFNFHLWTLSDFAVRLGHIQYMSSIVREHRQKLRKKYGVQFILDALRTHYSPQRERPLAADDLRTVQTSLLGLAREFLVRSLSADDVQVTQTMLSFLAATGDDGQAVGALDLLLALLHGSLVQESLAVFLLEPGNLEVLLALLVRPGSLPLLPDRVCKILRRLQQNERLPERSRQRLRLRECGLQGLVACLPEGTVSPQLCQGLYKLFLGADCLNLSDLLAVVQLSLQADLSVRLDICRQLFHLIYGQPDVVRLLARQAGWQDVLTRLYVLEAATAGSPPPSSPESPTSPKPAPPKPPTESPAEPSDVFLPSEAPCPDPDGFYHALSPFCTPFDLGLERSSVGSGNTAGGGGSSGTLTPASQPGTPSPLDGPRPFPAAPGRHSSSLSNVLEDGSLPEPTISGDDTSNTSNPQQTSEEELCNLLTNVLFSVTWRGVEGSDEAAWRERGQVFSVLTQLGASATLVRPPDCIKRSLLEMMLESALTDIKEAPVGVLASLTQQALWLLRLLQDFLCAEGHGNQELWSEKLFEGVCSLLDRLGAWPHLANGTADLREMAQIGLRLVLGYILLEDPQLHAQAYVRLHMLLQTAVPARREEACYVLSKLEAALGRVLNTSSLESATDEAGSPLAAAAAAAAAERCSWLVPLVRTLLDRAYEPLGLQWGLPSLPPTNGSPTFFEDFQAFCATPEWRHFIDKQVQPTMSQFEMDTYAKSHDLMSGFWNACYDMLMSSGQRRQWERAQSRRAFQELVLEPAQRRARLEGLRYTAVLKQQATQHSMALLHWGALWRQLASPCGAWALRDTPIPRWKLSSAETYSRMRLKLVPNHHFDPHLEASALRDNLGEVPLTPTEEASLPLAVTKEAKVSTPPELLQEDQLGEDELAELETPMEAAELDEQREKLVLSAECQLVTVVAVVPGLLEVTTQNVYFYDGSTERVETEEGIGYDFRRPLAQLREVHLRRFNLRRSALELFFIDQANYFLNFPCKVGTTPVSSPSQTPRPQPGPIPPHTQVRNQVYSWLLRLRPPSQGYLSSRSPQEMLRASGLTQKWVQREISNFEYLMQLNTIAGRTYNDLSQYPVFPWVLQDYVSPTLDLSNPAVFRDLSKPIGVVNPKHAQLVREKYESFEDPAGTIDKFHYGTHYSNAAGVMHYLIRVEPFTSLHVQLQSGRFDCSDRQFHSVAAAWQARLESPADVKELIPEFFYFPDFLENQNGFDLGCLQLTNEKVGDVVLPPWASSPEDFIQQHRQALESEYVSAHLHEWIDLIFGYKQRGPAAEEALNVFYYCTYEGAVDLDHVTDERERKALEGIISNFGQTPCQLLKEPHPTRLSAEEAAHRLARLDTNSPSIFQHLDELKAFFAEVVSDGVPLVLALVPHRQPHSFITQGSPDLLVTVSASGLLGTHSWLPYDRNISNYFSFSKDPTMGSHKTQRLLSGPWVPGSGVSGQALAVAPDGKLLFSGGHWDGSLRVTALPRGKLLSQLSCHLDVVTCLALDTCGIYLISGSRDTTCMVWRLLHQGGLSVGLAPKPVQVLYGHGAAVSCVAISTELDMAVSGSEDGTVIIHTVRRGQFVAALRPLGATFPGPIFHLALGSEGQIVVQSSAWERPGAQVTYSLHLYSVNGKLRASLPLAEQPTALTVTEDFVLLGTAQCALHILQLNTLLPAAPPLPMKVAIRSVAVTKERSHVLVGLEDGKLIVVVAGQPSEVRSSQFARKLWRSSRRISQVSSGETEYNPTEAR
# Results are given in words; binding and its absence hold for the method and conditions named. Binding seen in cells or lysates may run through a third protein. Some entries that bind do so weakly or less than the wild type.
# Target: CTLA-4 (human (endogenous in primary T cells)) (UniProt P16410)
# Experiment: co-IP; anti-CTLA-4 antibody coupled to agarose beads; lysates of CD3/CD28-activated T cells from healthy donors (Octyl buffer) after reversible cross-linking with DSP; 4 °C overnight; immunoblot of NBEAL2, LRBA and CTLA-4; unstimulated T cells as negative control
row,binding,Substance
1,binds,LPS-responsive beige-like anchor protein (LRBA) (from UniProt P50851 1-2863)
2,binds,NBEAL2 (from UniProt Q6ZNJ1 1-2754)
